# Binding screen against folded nucleic acids

From ROBIN, a set of small-molecule microarray screens (doi:10.1002/anie.202211358).

Oligonucleotides screened, 5′ to 3′:
T1: TPP riboswitch RNA three-way junction, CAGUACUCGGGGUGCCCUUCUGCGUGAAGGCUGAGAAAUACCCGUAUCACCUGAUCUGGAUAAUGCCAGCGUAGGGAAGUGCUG. About 160 hits among about 24,000 compounds.
T2: SAM-II riboswitch RNA pseudoknot, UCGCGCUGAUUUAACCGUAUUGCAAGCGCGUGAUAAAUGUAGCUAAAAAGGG. About 200 hits among about 21,000 compounds.
T3: PreQ1 riboswitch RNA pseudoknot, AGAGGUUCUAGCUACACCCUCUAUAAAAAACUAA. From B. subtilis. About 170 hits among about 24,000 compounds.

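Each compound is printed as two spots on a slide made to bind it covalently, so it has no test concentration; the read-out is fluorescence of the bound, labelled oligonucleotide. The data file lists only calls. An earlier report of the laboratory on the PreQ1, TPP and SAM-II riboswitches (doi:10.1038/s41467-019-09493-3) used 1 µM RNA for 2 h and required a mean Z-score above 3 (spot signal-to-noise against the whole library), a score well above that on a control array, and duplicate spots agreeing (coefficient of variation under 100); it then also set aside compounds that hit other targets, which this list keeps. The cut-offs behind this list may differ. The calls come from the array alone, and fixing a compound to the slide can hide its binding.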 “active” means called a hit, “inactive” means screened and not called a hit. The compounds are a random part of those screened. A target missing from an entry has no call listed here.

CCC(Cn1ccnc1)NC1CCN(c2ccc3c(c2)OCO3)CC1 (stereo not drawn) was scored T1: inactive; T2: inactive; T3: inactive. CC(=C/c1ccccc1)/C=C1/NC(=S)NC1=O was scored T1: inactive; T2: inactive; T3: inactive. With CCCN(CC#Cc1ccccc1)C(=O)[C@@H](N)CCCCN the screen gave T1: inactive; T2: inactive; T3: inactive. Calls for NCC1CCC(C(=O)N2CCC(OCc3ccccc3)CC2)CC1 (stereo not drawn) are T1: inactive; T2: inactive; T3: inactive. With C#CCN1C(=O)C2(C(C#N)=C(N)OC(C)=C2C(=O)OCC=C)c2ccccc21 (stereo not drawn) the screen gave T1: inactive; T2: inactive; T3: inactive. Nc1nnnn1CC(=O)Nc1ccccc1OCCCc1ccccc1 was scored T1: inactive; T2: inactive; T3: inactive.

With CC(=O)c1cc(CC(=O)N2CCC3(CC2)OCCCC3O)cs1 (stereo not drawn) the screen gave T1: inactive; T2: inactive; T3: inactive. For Cc1sc2nc3c4ccccc4c(NCCCO)nn3c(=O)c2c1C the calls were T1: inactive; T2: inactive; T3: inactive. Calls for Cc1ccc(-n2nc(CO)c(C(=O)NCCCO)n2)cc1 are T1: inactive; T3: inactive. Calls for Cc1ccc(-c2noc(-c3nnn(-c4cc(C)ccc4C)c3N)n2)cc1 are T1: inactive; T3: inactive. For Clc1ccc(Nc2nc(-c3ccncc3)cs2)cc1 the calls were T1: inactive; T2: inactive; T3: inactive. For OCC#CCSc1ncnc2[nH]cnc12 the calls were T1: inactive; T2: inactive; T3: inactive.

Calls for Cc1ccc2nc(CNCCc3c(C)n[nH]c3C)cc(O)c2c1 are T1: inactive; T2: inactive; T3: inactive. With CCCCNc1nc(CC(C)=O)ns1 the screen gave T1: inactive; T2: inactive; T3: inactive. For CCCc1nn2c(N)c(C(=O)OCC)cnc2c1-c1ccc(F)cc1 the calls were T1: inactive; T3: inactive. For N#CC1=C(N)Oc2c(c(=O)sc3ccccc23)C1c1ccccc1F (stereo not drawn) the calls were T1: inactive; T2: inactive; T3: inactive. With CC(C)c1ccc(CN2CCCC(O)(CNCCc3cscn3)C2=O)cc1 (stereo not drawn) the screen gave T1: inactive; T2: inactive; T3: inactive. With NC(=O)C1=C(NCC2CCCO2)c2ccccc2S1(=O)=O (stereo not drawn) the screen gave T1: inactive; T3: inactive.

For CCN(CCO)C(=O)c1cnc(Cc2c(Cl)cccc2Cl)nc1O the calls were T1: inactive; T2: inactive; T3: inactive. Cc1cccc(NC(=O)c2c(N)sc3c2CCC(C(C)(C)C)C3)c1 (stereo not drawn) was scored T1: inactive; T2: inactive; T3: inactive.

Once more, the final 2:

| SMILES | T1 | T2 | T3 |
|---|---|---|---|
| `CCN(CCO)C(=O)c1cnc(Cc2c(Cl)cccc2Cl)nc1O` | inactive | inactive | inactive |
| `Cc1cccc(NC(=O)c2c(N)sc3c2CCC(C(C)(C)C)C3)c1` (stereo not drawn) | inactive | inactive | inactive |